Consider two substances from PMC7920345.

Sequences of proteins named here, by UniProt entry; tags and fusion partners are left off. A change or cut given only in a name is not applied to a line headed by its entry. A line that says so, or that is headed by a name, gives the form on record, which may keep a tag or linker.
UniProt P56519: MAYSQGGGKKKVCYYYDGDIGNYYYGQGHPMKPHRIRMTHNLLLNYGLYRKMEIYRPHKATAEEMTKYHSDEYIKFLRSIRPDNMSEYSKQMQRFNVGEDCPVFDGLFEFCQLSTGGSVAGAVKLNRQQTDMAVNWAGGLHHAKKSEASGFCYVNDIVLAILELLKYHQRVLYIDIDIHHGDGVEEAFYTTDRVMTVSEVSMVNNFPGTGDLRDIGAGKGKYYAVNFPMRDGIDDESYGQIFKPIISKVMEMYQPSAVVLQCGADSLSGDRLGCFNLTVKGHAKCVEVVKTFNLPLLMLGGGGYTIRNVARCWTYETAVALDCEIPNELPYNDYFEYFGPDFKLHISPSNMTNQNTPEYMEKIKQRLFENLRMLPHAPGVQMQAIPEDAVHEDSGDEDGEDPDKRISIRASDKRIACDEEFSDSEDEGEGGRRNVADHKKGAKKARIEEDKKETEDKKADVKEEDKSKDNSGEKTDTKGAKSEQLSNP
FLAG tagged chHDAC2-S407/411D (P56519, form named): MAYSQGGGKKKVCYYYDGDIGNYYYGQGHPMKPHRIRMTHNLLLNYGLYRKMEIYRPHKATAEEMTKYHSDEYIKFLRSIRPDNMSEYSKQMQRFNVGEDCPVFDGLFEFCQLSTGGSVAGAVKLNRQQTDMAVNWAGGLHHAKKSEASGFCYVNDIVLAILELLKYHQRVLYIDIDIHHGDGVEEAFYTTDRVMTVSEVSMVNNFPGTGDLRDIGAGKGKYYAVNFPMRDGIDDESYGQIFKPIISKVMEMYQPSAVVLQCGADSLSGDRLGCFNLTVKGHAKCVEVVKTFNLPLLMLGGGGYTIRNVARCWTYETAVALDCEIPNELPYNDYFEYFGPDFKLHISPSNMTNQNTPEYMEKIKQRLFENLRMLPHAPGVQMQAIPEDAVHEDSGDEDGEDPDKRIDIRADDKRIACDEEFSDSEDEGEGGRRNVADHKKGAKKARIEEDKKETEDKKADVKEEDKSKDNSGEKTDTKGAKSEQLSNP
FLAG tagged chHDAC2-S407/411A (P56519, form named): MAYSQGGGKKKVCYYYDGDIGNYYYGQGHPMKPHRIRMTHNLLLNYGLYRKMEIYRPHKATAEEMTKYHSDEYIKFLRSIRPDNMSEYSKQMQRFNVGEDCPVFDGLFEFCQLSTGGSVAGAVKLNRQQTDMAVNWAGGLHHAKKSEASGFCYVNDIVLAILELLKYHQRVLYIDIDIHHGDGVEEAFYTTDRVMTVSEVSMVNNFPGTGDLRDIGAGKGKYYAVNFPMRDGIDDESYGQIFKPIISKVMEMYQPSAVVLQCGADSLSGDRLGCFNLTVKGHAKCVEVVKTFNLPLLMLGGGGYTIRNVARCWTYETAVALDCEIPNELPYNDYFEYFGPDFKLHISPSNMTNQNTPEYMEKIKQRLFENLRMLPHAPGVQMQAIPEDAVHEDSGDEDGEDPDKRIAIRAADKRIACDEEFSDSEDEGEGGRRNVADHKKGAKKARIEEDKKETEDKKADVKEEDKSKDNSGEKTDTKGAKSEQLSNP
UniProt P56517: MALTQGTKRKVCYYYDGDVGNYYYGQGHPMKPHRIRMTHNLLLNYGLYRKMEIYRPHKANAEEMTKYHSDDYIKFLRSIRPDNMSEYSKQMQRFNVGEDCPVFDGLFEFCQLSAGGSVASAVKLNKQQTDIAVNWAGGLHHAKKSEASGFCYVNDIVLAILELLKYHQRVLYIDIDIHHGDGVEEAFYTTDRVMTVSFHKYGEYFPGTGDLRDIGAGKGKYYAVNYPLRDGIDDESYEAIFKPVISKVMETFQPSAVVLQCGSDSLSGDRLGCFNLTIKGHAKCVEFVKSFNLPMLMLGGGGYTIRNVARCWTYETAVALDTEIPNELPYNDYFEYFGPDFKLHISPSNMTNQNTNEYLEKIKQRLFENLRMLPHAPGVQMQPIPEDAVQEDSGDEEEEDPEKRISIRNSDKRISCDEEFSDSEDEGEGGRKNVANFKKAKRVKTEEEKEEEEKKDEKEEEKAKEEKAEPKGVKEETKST
FLAG tagged chHDAC1-S406/410/415A (P56517, form named): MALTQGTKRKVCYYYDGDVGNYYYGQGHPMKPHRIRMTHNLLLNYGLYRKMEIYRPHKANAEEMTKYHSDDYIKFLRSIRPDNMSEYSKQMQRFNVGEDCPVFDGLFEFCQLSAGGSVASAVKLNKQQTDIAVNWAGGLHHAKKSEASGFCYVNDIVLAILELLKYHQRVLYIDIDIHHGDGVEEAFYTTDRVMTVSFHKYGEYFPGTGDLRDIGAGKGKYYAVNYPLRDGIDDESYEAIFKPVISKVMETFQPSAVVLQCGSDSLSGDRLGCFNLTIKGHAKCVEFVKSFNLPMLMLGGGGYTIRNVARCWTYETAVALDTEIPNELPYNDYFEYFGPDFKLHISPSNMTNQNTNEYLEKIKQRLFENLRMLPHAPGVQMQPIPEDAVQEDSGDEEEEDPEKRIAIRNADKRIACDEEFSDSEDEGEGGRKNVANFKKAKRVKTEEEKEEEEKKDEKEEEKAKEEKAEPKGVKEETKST
FLAG tagged chHDAC1-S406/410/415D (P56517, form named): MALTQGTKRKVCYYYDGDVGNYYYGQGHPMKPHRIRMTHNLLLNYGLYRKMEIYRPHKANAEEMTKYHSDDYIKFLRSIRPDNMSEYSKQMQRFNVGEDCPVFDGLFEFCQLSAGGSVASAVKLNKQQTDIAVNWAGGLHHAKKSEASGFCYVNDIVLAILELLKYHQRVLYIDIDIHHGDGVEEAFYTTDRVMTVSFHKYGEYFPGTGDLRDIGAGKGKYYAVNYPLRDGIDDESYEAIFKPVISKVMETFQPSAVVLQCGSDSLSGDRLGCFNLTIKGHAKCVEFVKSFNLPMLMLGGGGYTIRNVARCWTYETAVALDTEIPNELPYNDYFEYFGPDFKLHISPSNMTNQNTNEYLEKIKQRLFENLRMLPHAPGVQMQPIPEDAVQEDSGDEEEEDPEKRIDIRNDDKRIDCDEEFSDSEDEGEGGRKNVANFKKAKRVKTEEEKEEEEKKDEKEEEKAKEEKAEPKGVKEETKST

What all share (assay): co-IP; 293T cells co-transfected for 48 h; EBC lysis buffer (50 mM Tris-HCl, 120 mM NaCl, 0.5% NP-40); 500 ug whole cell lysate with mouse anti-FLAG agarose beads overnight at 4°C, five washes; Western blot
(Immunoblotting shows a protein as a band on a membrane.)

Assay [1] concerns the target FLAG tagged wild type chicken HDAC2 (chicken) (UniProt P56519).
In assay [2] the target is FLAG tagged chHDAC2-S411D (chicken) (UniProt P56519).
Assay [3] addresses FLAG tagged chHDAC2-S407A (chicken) (UniProt P56519).
The target in assay [4] is FLAG tagged wild type chicken HDAC1 (chicken) (UniProt P56517).
Assay [5] addresses FLAG tagged chHDAC2-S407/411D (chicken) (UniProt P56519).
The target of assay [6] is FLAG tagged chHDAC2-S407D (chicken) (UniProt P56519).
Assay [7] addresses FLAG tagged chHDAC2-S411A (chicken) (UniProt P56519).
Assay [8] deals with FLAG tagged chHDAC2-S407/411A (chicken) (UniProt P56519).
In assay [9] the target is FLAG tagged chHDAC1-S406/410/415A (chicken) (UniProt P56517).
In assay [10] the target is FLAG tagged chHDAC1-S406/410/415D (chicken) (UniProt P56517).
Assay [11] deals with FLAG tagged chHDAC1-S410D (chicken) (UniProt P56517).

Results are given in words; binding and its absence hold for the method and conditions named. In cells and extracts the contact can be indirect. Some entries that bind do so weakly or less than the wild type.

“HA tagged wild type chicken histone deacetylase 1 (unmodified) (from UniProt P56517 1-480) (enzyme)”: the binding result in [1], in [2], in assay [3], in assay [4], in assay [5] and in [6] was “binds” in each case. The binding result in assay [7] and in assay [8] was “binds” each time.
“HA tagged wild type chicken histone deacetylase 2 (unmodified) (from UniProt P56519 1-488) (enzyme)”: the binding entry in assay [9] is recorded as “binds weakly”; in assay [1], “binds”; in assay [10] it was “binds”; in assay [4], “binds”; in assay [11], “binds”.
